In paper PMC10163288:
This is one part of the list.

B1: il2ra_site1_3nfp_sap_6_mot_HHH_b1_03953_af2_000000297_0001_43_57_H_._HHH_b2_01865_0001_0000100005_0000001_0_0001_af2pred_0001_af2pred_swapped (protein)
chain: SLERFVENVIKLLRKLDPELARLLEIALELAKEGDPEAREVLKRVLRLLARGNPEQARELLEELE
B2: il2ra_site1_1z92_normal_mot_dddd11d5de81826a7497a0a2545a4374_0001_1_000000154_0001_35_49_H_._73748e87acf97c5b21ce774ef908246a_0001_af2_0001_0000300024_0000001_1 … (protein)
chain: SNEEKVEELAKKLGIPPEEVEKAIEYLREEEKIPPRNAVIYLLIILRKVEEGDPTAERLLEDLIE
B3: il2ra_site2_3nfp_normal_mot_HHH_b1_00660_af2_000000090_0001_40_57_H_._HHH_b2_05851_af2_0001_0001100007_0000001_1_af2pred_0001_af2pred_1_swapped (protein)
chain: SSSSDEEEVERLVEELLEEAKKIEDPEERERVLHRAATVAAQAGDHELFVLVLRVLEKLGSSSSS
B4: il2ra_site1_2b5i_sap_9_mot_HHH_b2_04131_000000150_0001_1_16_H_._HHH_b2_05123_0001_0000300010_0000001_0_0001_af2pred_dldesign_0_af2pred (protein)
chain: SSSSSSSSDWRALLREADAAFKAGDIARLEELLARARAAGWDKVAAAIEKAIEDLKKSSSSSSSS
B5: il2ra_site1_1z92_normal_mot_HHH_b2_08380_af2_000000158_0001_44_57_H_._HHH_b1_04199_af2_0001_0000100003_0000001_0 (protein)
chain: SSSSSDEAQERIAELFHEASRVDREEAKELLEEAEELAEENNDERLLKDVRQALEFFELSSSSSS
B6: il2ra_site1_2b5i_sap_11_mot_HHH_b2_06044_000000134_0001_1_20_H_._HHH_b2_00948_af2_0001_0000100015_0000001_0_0001_af2pred_dldesign_0_af2pred (protein)
chain: SSSSDPEDEIYDLFNKALELYKAGKREEAKKLLEEALKLAEAANDAKAVAELKYLLERLKSSSSS
B7: il2ra_site1_2b5i_normal_mot_HHH_b2_04373_af2_000000166_0001_1_14_H_._HHH_b1_03244_0001_0000100001_0000001_1_af2pred_dldesign_0_af2pred (protein)
chain: SSSSDPEAEREALLKRVDELLEKLKSPKKKKVLEDAKKRLEEENDPNAFKFLKDFVERAKSSSSS
B8: il2ra_site2_3nfp_sap_29_mot_0a42daeb3aece44cdc522fd0f5bebdbb_0001_af2_000000199_0001_52_65_H_._9d722f4281fe2ab0f1894ca7efdbd281_0001_1_0001_0000400006_0000001_0 … (protein)
chain: SSSSDREEAEELLEQLERALREGDEELFEELRREVARLVLQIGDEELAHLLDELAILALELSSSS
B9: il2ra_site1_1z92_normal_mot_0a69b5c9b02373fb877a90f2b4b0d8e1_0001_1_af2_000000257_0001_17_32_H_._25b8f65eea30506755b2c3fc02a1d269_0001_0001_0000100005_0000001_0 … (protein)
chain: SALQRDVERSLEHGIPPRAIARVLIKALKREGDVEEAIEELEELAKKLNDPALEEVAELLRELIK
B10: il2ra_site1_1z92_sap_18_mot_6e12af4a48b4634929ba45889b8be782_0001_af2_000000007_0001_36_50_H_._HHH_b2_03999_0001_0000300019_0000001_0_0001 (protein)
chain: SSSNSEEMLRMLIRQIEMALRRGNPEAVRWHLELLELLAKNAEDPEAEKEVERLEELLEELSSSS
B11: il2ra_site1_2b5i_normal_mot_HHH_b1_06258_af2_000000112_0001_42_56_H_._HHH_b2_04681_0001_0000100003_0000001_0 (protein)
chain: SSSSDEEEERVDELFLEASRLWKEGDPEEAERVLEEAARLAKEAGDERALRQVEFMLERLRSSSS
B12: il2ra_site2_2erj_normal_mot_HHH_b1_07584_000000201_0001_42_55_H_._HHH_b1_03002_af2_0001_0000200013_0000001_1 (protein)
chain: SSSSSEEQEELQELIIKLSELAEQGNPEEAEKVLEEAKRLAKELNDETTLRYLELIERHLSSSSS
B13: il2ra_site2_3nfp_normal_mot_HHH_b1_00660_af2_000000199_0001_40_57_H_._HHH_b1_07932_0001_0000200014_0000001_1 (protein)
chain: SSSSDKEEIEKLLEELEEALREGDEELFRRIARRVSNLIFELGDHELFAILLELLTEFEELSSSS
B14: il2ra_site1_3nfp_sap_6_mot_HHH_b2_07013_af2_000000042_0001_20_36_H_._HHH_b2_00665_0001_0000600012_0000001_0_0001 (protein)
chain: SSSSTFIEEMTREAEEIAEELGNPELAERLRELLERAQEEGDWRYARELIKLIAKVQHAGSSSSS
B15: il2ra_site1_1z92_normal_mot_678a1b28e3afbd0e6d42a78f97d9d1d3_0001_000000285_0001_16_30_H_._35e8c6ce0f15a03652163f0e02ca9f08_0001_0001_0000200022_0000001_0_af2pr … (protein)
chain: SEEDLEEAAEELGVPPEELQALKRAFKVAAESGTPPEQVLRVLARIARRENDPELLLVVELVLRK
B16: il2ra_site1_2b5i_normal_mot_f5ff40796168375b462bec8614a1db4a_0001_1_000000138_0001_53_65_H_._HHH_b1_08246_af2_0001_0000700010_0000001_0_af2pred_dldesign_0_af2pr … (protein)
chain: SSSSSGLREKVLELLEEAEKLKEEGKLEEAKKLLLLARRLARKGKDEELIAEIEKRLKELSSSSS
B17: il2ra_site1_1z92_normal_mot_54e474eed2d0515e81978198f0f96ec2_0001_000000202_0001_15_30_H_._HHH_b2_05542_af2_0001_0000400025_0000001_0_af2pred_0001_af2pred_1 (protein)
chain: SSSSSSDEEIEEIVRELVEEFNLSEETEKLLQRLAELALKRGISERAIEWALRRLAKRLSSSSSS
B18: il2ra_site1_2b5i_sap_7_mot_HHH_b1_01240_af2_000000288_0001_42_55_H_._HHH_b2_06808_0001_0000300022_0000001_0_0001_af2pred_dldesign_0_af2pred (protein)
chain: SPELYALADKLFDDDDKEKKRVAVKAHYLLERDPSLEPEVLELLRQLEAGELSPEEVDRRLSRLL
B19: il2ra_site1_1z92_sap_15_mot_HHH_b2_04857_af2_000000020_0001_39_57_H_._HHH_b1_04489_af2_0001_0000100006_0000001_0_0001_af2pred_0001_af2pred (protein)
chain: SIIEEDLREAVEKNDEELLREFIRLLLEDSGNPELVKKLLRILVRRLGLPPEVLERLQELLEELT

biological target: il2ra, P01589; assay: yeast display titration

Apparent Kd, inactive:
B1 no binding seen
B2 no binding seen
B3 no binding seen
B4 no binding seen
B5 no binding seen
B6 no binding seen
B7 no binding seen
B8 no binding seen
B9 no binding seen
B10 no binding seen
B11 no binding seen
B12 no binding seen
B13 no binding seen
B14 no binding seen
B15 no binding seen
B16 no binding seen
B17 no binding seen
B18 no binding seen
B19 no binding seen

Reprinted at random: 2 records from the list
Apparent Kd, inactive:
B1 no binding seen
B4 no binding seen
